The target of the assay is FLAG-tagged SMAD7 (UniProt O15105). In words: co-IP; HEK293T transfected with MYC-SMURF2, Flag-SMAD7 and/or GST-SHP2, lysed after 48 h; immunoprecipitated with anti-FLAG affinity resin, blotted; with and without co-expressed SHP2.

Chains of the proteins cited; added tags and fusions are not shown.
UniProt O15105: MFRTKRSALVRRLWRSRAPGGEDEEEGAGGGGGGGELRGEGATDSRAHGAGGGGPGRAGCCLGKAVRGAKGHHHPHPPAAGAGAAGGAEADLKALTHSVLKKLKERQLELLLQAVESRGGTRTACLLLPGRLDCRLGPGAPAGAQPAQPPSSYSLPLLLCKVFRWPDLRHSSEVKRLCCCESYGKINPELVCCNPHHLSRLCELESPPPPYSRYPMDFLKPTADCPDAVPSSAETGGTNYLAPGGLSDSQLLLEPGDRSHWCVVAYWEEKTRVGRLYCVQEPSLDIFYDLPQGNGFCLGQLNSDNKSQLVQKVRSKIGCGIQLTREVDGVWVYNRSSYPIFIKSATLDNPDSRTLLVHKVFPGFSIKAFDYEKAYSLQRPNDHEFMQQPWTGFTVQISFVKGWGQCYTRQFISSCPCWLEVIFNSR
UniProt Q9HAU4: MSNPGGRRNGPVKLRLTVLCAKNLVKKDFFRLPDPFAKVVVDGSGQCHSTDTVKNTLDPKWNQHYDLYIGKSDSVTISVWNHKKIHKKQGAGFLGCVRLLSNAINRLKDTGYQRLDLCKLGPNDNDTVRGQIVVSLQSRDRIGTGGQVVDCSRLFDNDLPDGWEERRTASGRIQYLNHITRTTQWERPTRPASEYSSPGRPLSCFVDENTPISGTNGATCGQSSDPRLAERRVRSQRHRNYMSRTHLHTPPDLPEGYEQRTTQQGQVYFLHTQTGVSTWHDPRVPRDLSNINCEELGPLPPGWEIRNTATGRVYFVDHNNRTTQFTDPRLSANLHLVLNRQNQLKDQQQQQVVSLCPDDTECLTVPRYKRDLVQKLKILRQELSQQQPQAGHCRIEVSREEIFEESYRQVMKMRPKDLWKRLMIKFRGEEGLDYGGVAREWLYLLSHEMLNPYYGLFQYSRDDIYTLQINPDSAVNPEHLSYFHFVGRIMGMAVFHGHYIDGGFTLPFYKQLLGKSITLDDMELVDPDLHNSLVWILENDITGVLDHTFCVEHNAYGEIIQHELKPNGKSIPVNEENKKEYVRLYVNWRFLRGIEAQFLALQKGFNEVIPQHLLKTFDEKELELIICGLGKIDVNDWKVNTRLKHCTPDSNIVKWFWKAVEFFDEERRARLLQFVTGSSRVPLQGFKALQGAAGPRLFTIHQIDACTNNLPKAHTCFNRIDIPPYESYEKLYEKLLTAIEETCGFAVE

No constants are given. Whether binding was seen depends on the method and setting. In cells and extracts the contact can be indirect. Some binding calls cover weakened binding; strength is not graded here.

“MYC-tagged SMURF2 (from UniProt Q9HAU4 1-748) (enzyme)”: the binding result is listed as “binds”.

Values taken from publication PMC10724235.
